Results deposited as PubChem BioAssay AID652243 (Drosophila RNAi Screening Center, 2013).

- Assay: 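Fly genes required for human androgen receptor driven transcription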 (primary screen)
- System: Drosophila S2R+ cells
- Knock-down reagent: long dsRNA against Drosophila genes
- Duration: 72 h (48 h, then 24 h hormone)
- Conditions: synthetic androgen R1881 at 10 nM for 24 h
- Detection: 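Firefly light from an androgen-responsive reporter and Renilla control light per well, raw and unnormalised, for each of two replicates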
- Reading the numbers: firefly reporter light: higher = more light from androgen-responsive reporter; Renilla control light: higher = more constitutive control signal (cell number, transfection)
- Hit rule: 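Hit when the log firefly-to-Renilla ratio dropped or increased by a fixed fold versus the mean of GFP or LacZ controls across duplicate plates; lowering cut given as 1.5 and as 3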
- Meaning of the calls: active = hit: reporter lowered or raised; inactive = no hit
The deposit covers about 24,000 reagents; this is a random part of those that have a named target and a result. In the full data, 246 (1%) got an active call. 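Plates not normalised; calls are printed but the firefly/Renilla ratio behind them is not deposited; fold cut for lowering reported inconsistently.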 Raw values are not corrected between plates. Names joined by + are all predicted targets of the reagent. Reagent sequences are not shown. Not stated in the record: the amount of reagent.

no.	Gene	amplicon	firefly reporter light, replicate 1	firefly reporter light, replicate 2	Renilla control light, replicate 1	Renilla control light, replicate 2	Call
1	CDase (Ceramidase)	DRSC14932	56385	53795	5.83e5	4.07e5	inactive
2	ccb (central complex broad)	DRSC20501	2.66e5	1.51e5	4.86e5	3.88e5	inactive
3	Prosalpha6 (Proteasome alpha6 subunit)	DRSC03401	1.86e5	1.28e5	7.46e5	9.85e5	inactive
4	frac (faulty attraction)	DRSC10867	1.11e6	9.73e5	1.41e6	1.47e6	inactive
5	frac (faulty attraction)	DRSC29239	4.88e5	5.47e5	1.91e6	1.50e6	inactive
6	CG7231	DRSC03034	1.88e5	1.50e5	1.64e6	1.48e6	inactive
7	pll (pelle)	DRSC17026	1.14e5	89598	9.99e5	9.89e5	inactive
8	pll (pelle)	DRSC28551	4.23e5	8.74e5	8.45e5	1.57e6	inactive
9	Hn (Henna)	DRSC11184	8.42e5	7.91e5	2.02e6	1.67e6	inactive
10	RfC38 (Replication factor C 38kD subunit)	DRSC29807	7.79e5	5.38e5	1.63e6	1.47e6	inactive
11	CG13532	DRSC04174	3.91e5	3.79e5	2.63e6	2.30e6	inactive
12	msps (mini spindles)	DRSC17004	83059	59383	5.72e5	5.44e5	inactive
13	CG10175	DRSC13628	1.26e5	1.22e5	1.15e5	1.98e5	inactive
14	CG10175	DRSC14200	1.69e5	2.64e5	3.27e6	3.10e6	inactive
15	CG10175	DRSC21981	6.38e5	5.99e5	1.39e6	1.61e6	inactive
16	CG5157	DRSC10488	1.62e5	1.69e5	1.80e6	1.58e6	inactive
17	CG5157	DRSC27474	8.38e5	8.17e5	1.23e6	9.50e5	inactive
18	CG5157	DRSC39055	7.61e5	5.93e5	2.48e6	2.40e6	inactive
19	CG17124	DRSC02580	4.25e5	3.52e5	2.15e6	2.26e6	inactive
20	CG17124	DRSC29139	7.55e5	5.32e5	1.66e6	1.12e6	inactive
21	CG6893	DRSC10742	2.29e5	1.81e5	2.21e6	2.34e6	inactive
22	Qsox2 (Quiescin sulfhydryl oxidase 2)	DRSC15287	66168	60036	4.91e5	4.48e5	inactive
23	Qsox2 (Quiescin sulfhydryl oxidase 2)	DRSC26634	3.54e5	3.02e5	6.86e5	6.72e5	inactive
24	GstD10 (Glutathione S transferase D10)	DRSC15346	1.29e5	1.55e5	2.35e6	2.83e6	inactive
25	GstD10 (Glutathione S transferase D10)	DRSC25140	6.24e5	3.30e5	5.39e5	4.10e5	inactive
26	PIG-Wa (Phosphatidylinositol glycan anchor biosynthesis class W a)	DRSC00728	1.27e5	1.08e5	7.91e5	7.31e5	inactive

Sorted by “Renilla control light, replicate 1” (lowest first): some entries from above
Gene	amplicon	firefly reporter light, replicate 1	firefly reporter light, replicate 2	Renilla control light, replicate 1	Renilla control light, replicate 2	Call
Qsox2 (Quiescin sulfhydryl oxidase 2)	DRSC15287	66168	60036	4.91e5	4.48e5	inactive
Qsox2 (Quiescin sulfhydryl oxidase 2)	DRSC26634	3.54e5	3.02e5	6.86e5	6.72e5	inactive
CG5157	DRSC27474	8.38e5	8.17e5	1.23e6	9.50e5	inactive
CG17124	DRSC29139	7.55e5	5.32e5	1.66e6	1.12e6	inactive
CG17124	DRSC02580	4.25e5	3.52e5	2.15e6	2.26e6	inactive
CG6893	DRSC10742	2.29e5	1.81e5	2.21e6	2.34e6	inactive
GstD10 (Glutathione S transferase D10)	DRSC15346	1.29e5	1.55e5	2.35e6	2.83e6	inactive
CG5157	DRSC39055	7.61e5	5.93e5	2.48e6	2.40e6	inactive

The list goes on:
no.	Gene	amplicon	firefly reporter light, replicate 1	firefly reporter light, replicate 2	Renilla control light, replicate 1	Renilla control light, replicate 2	Call
27	CDK2AP1 (CDK2-associated protein 1)	DRSC19800	69257	1.06e5	6.23e5	6.69e5	inactive
28	CDK2AP1 (CDK2-associated protein 1)	DRSC25637	6.90e5	5.65e5	9.45e5	8.09e5	inactive
29	dgrn (degringolade)	DRSC12154	21085	37949	2.67e5	2.49e5	inactive
30	Mics1 (Mitochondrial morphology and cristae structure 1)	DRSC12537	61353	1.10e5	1.53e6	1.61e6	inactive
31	CG4887	DRSC00670	1.15e5	98633	1.20e6	1.14e6	inactive
32	CG4887	DRSC21563	6.26e5	6.19e5	2.65e6	2.75e6	inactive
33	CG4887	DRSC25723	8.27e5	1.13e6	7.33e5	1.15e6	inactive
34	CG9396	DRSC16487	1.76e5	1.84e5	2.64e6	1.90e6	inactive
35	CG9396	DRSC24611	8.67e5	1.02e6	9.50e5	1.14e6	inactive
36	FucTB (alpha1,3-fucosyltransferase B)	DRSC02745	1.46e5	1.75e5	1.23e6	1.14e6	inactive
37	I-t (inhibitor-t)	DRSC16713	1.35e5	1.14e5	2.66e6	2.85e6	inactive
38	I-t (inhibitor-t)	DRSC36766					inactive
39	fs(1)Ya (female sterile (1) Young arrest)	DRSC23058	7.65e5	1.03e6	1.48e6	1.71e6	inactive
40	rdx (roadkill)	DRSC16580	1.18e5	1.88e5	2.12e6	2.30e6	inactive
41	rdx (roadkill)	DRSC23120	6.84e5	7.93e5	1.66e6	1.77e6	inactive
42	rdx (roadkill)	DRSC29820	4.51e5	3.79e5	1.48e6	1.30e6	inactive
43	Ir20a (Ionotropic receptor 20a)	DRSC20506	1.18e5	1.22e5	2.39e5	2.23e5	inactive
44	Sf3b3 (Splicing factor 3b subunit 3)	DRSC08370	5.94e5	7.40e5	9.69e5	1.15e6	inactive
45	Elp2 (Elongator complex protein 2)	DRSC06095	9.64e5	1.45e6	1.79e6	1.99e6	inactive
46	Cbp53E (Calbindin 53E)	DRSC07356	1.19e6	8.06e5	1.52e6	9.94e5	inactive
47	Cbp53E (Calbindin 53E)	DRSC24679	9.85e5	6.95e5	8.92e5	1.04e6	inactive
48	Cbp53E (Calbindin 53E)	DRSC38954	8.50e5	6.96e5	1.42e6	1.57e6	inactive
49	SdhC (Succinate dehydrogenase, subunit C)	DRSC16088	1.16e5	1.55e5	1.73e6	2.14e6	inactive
50	E(spl)m5-HLH (Enhancer of split m5, helix-loop-helix)	DRSC16695	1.94e5	1.59e5	2.43e6	2.05e6	inactive
51	E(spl)m5-HLH (Enhancer of split m5, helix-loop-helix)	DRSC28232	3.86e5	5.27e5	1.47e6	1.92e6	inactive
52	CG2278	DRSC18226	1.86e5	2.00e5	2.06e6	2.83e6	inactive
53	CG12607	DRSC08287	1.38e5	1.22e5	1.95e6	1.80e6	inactive
54	fabp + sea	DRSC16114	80253	96385	3.33e5	5.37e5	inactive
55	fabp + sea	DRSC16115	50887	47308	3.51e5	4.57e5	inactive
56	spartin	DRSC12187	1.23e5	1.02e5	2.95e6	2.65e6	inactive
57	spartin	DRSC27182	3.59e5	2.73e5	4.87e5	5.01e5	inactive
58	Obp99b (Odorant-binding protein 99b)	DRSC16264	61464	1.13e5	1.60e6	2.38e6	inactive
59	Obp99b (Odorant-binding protein 99b)	DRSC27754	2.45e5	2.42e5	4.77e5	6.82e5	inactive
